We go through 65 compounds from PubChem BioAssay AID493014 (National Center for Advancing Translational Sciences (NCATS), 2011).

The structures appear in SMILES notation. The list shows a part of the results. These are further read-outs of the screen, such as a control signal, another cell line or another target. No call is given for them. Compounds called inactive in the main read-out are mostly missing here. Potencies come from curve fits of mixed quality, noted in brackets.

The nature of the test: qHTS Assay to Find Inhibitors of Chronic Active B-Cell Receptor Signaling. The note with it: ABC-DLBCL IkBa-CBG/CBR reporter, luminescence ratio (green luciferase fused to IkBa over red control in TMD8 lymphoma cells), 4 h. The method in brief: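 Compounds up to 46 uM were incubated four hours with TMD8 cells whose green CBG68 luciferase is fused to IkappaBalpha; red CBR luminescence normalised the signal, and concentration-effect curves were fitted to fusion, red and ratio data.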

Setting [1] is: measured here: CBR red luminescence, cell number.
Where [2] appears, read: measured here: IkBa-CBG green luminescence.

Take `COCCNc1oc(-c2ccc(Cl)cc2)nc1C#N`: the half-maximal activity concentration (AC50) (as a rule, the concentration giving half of the maximal activity seen) under setting [1] is 10 µM [rising, partial curve, poor fit].
As for `COc1ccccc1N1CCN(C(=O)C2Cc3ccccc3CN2C(=O)c2ccco2)CC1` (stereo not drawn), the AC50 under setting [1] is 29.1 µM [falling, single point].
Same read-out and setting: in the case of `O=C(O)c1ccc2c(c1)C(=O)/C(=C\c1ccco1)C2=O` it was 8.91 µM [falling, partial curve]; in that of `CC(C)(C)NC(=O)/C(=C\c1ccccc1F)NC(=O)c1ccc([N+](=O)[O-])cc1`, 7.94 µM [rising, partial curve, poor fit].
Same read-out and setting: the figure for `Cc1cc(C(=O)NNC(=O)c2cccc([N+](=O)[O-])c2)n[nH]1` is 23.1 µM [falling, single point]; for `O=C(Nc1nnc(Cc2ccc(Cl)cc2)s1)c1cccs1` it is 20.6 µM [rising, single point].
Turning to `CCCNC(=O)COC(=O)c1ccccc1C(=O)c1ccc(Cl)c([N+](=O)[O-])c1`, the AC50 is 11.2 µM [falling, partial curve] under setting [1] and 7.08 µM [rising, partial curve, poor fit] under setting [2].
For `NS(=O)(=O)c1ccc(NC(=O)CSc2nnc(Cc3cccs3)n2-c2ccccc2)cc1`, the AC50 under setting [1] was 1.46 µM [falling, partial curve, poor fit].
On to `COc1cc(C(=O)OCC(=O)NC23CC4CC(CC(C4)C2)C3)cc(OC)c1OC`, for which, under setting [1], the concentration at half-maximal activity (AC50) was 4.61 µM [rising, single point].
For `Cc1ccc(C(=O)CC2SC(N)=NC2=O)cc1` (stereo not drawn), under setting [1], the concentration at half-maximal activity (AC50) is 9.2 µM [rising, partial curve, poor fit].
On the same count and under the same terms, in the case of `O=C(NN=C1CCN(Cc2ccccc2)CC1)c1ccccc1O` it was 2.24 µM [falling, full curve].
Turning to `CCOC(=O)c1c[nH]n(-c2ccccc2)c1=O`, the concentration at half-maximal activity (AC50) under setting [1] was 8.91 µM [falling, partial curve, poor fit].
`Cc1ccc(CN2C(=O)C(=O)c3cc(C)ccc32)cc1`: the AC50 reads like this: under setting [1], 20.6 µM [rising, partial curve]; under setting [2], 23.1 µM [falling, single point].
In the case of `COc1ccccc1NC(=O)C(=O)NCCCN1CCCC1=O`, under setting [1], the AC50 is 18.4 µM [falling, partial curve].
Same read-out and setting: in the case of `O=C(CSC(=S)N1CCOCC1)c1cc(Br)cc(Br)c1O` it was 35.5 µM [rising, partial curve, poor fit]; in that of `O=C(Nc1ccc2c(c1)OCCO2)c1ccc(Br)o1`, 11.2 µM [falling, partial curve, poor fit].
Same read-out and setting: the figure for `COc1cccc(CNC(=O)Cn2cc3c(n2)CCCCC3)c1` is 16.4 µM [falling, partial curve]; for `COC(=O)Cn1cnc2ccccc2c1=O` it is 8.2 µM [rising, partial curve, poor fit]; for `CCN(CCn1cccn1)C(=O)CCc1nnc(CCCc2ccccc2)o1` it is 15.8 µM [rising, single point].
On the same count and under the same terms, in the case of `O=C(NC1CCCCC1)C(c1ccccc1)N(C(=O)c1csnn1)C1CCCC1` (stereo not drawn) it was 35.5 µM [falling, single point]; in that of `COc1ccc2sc(-c3ccc(S(C)(=O)=O)cc3)c(-c3ccc(C(N)=O)cc3)c2c1`, 18.4 µM [rising, single point].
Consider `COc1ccc(S(=O)(=O)N(CCCN2CCOCC2)Cc2cccc3ccccc23)cc1`, for which the AC50 under setting [1] was 11.6 µM [falling, partial curve, poor fit].
Still for that read-out and setting: the figure for `Cc1noc(C)c1CSCC(=O)Nc1cc(Cl)ccc1N1CCOCC1` is 15.8 µM [rising, single point]; for `Cc1ccc(-c2csc(=S)[nH]2)cc1` it is 5.62 µM [rising, single point].
As to `CN(C)N1C(N)=C(C#N)C(c2ccc3c(c2)OCO3)C2=C1CC(C)(C)CC2=O` (stereo not drawn), under setting [1], the AC50 is 6.31 µM [rising, single point].
Same read-out and setting: in the case of `CN(C)S(=O)(=O)c1cccc(C(=O)OCC(=O)NC2CCCc3ccccc32)c1` (stereo not drawn) it was 2.59 µM [rising, full curve].
On the same count and under the same terms, in the case of `CCN(Cc1ccc(C#CCCO)cc1)CC1CCCN(CCc2cccc(F)c2)C1` (stereo not drawn) it was 17.8 µM [falling, single point]; in that of `CCSc1nnc(NC(=O)Nc2cccc(C)c2)s1`, 35.5 µM [falling, single point].
With `CCOC(=O)c1ccc(OCc2c(C)noc2C)cc1`, the half-maximal activity concentration (AC50) under setting [1] is 18.4 µM [rising, partial curve, poor fit].
Still for that read-out and setting: in the case of `Cc1nn(-c2ccccc2)c(C)c1/C=N/NC(=O)c1cc(O)cc(O)c1` it was 35.5 µM [falling, single point]; in that of `Cc1cc(S(=O)(=O)N2CCN(c3ccccc3C)CC2)ccc1F`, 0.411 µM [falling, full curve, poor fit].
Same read-out and setting: in the case of `Cc1cccc(N(CC(=O)NCc2ccco2)C(=O)CCC(=O)Nc2nccs2)c1C` it was 35.5 µM [falling, single point]; in that of `O=C(O)CCn1cc(/C=C/C(=O)c2ccc(Cl)cc2)c(-c2cccc(Br)c2)n1`, 7.08 µM [falling, partial curve].
As to `CCOc1ccccc1NC(=O)CSc1nc2c(c(=O)n1C)SC(C)C2` (stereo not drawn), the AC50 under setting [1] is 20.6 µM [falling, single point].
On the same count and under the same terms, the figure for `NC(=O)c1ccsc1NC(=O)Cc1ccc([N+](=O)[O-])cc1` is 7.94 µM [falling, partial curve]; for `CC(C)c1ccc(N(CC(=O)NCCSCc2ccco2)S(C)(=O)=O)cc1` it is 20 µM [rising, single point].
Regarding `CCC1(C)Cc2c(sc3nc4n(c(=O)c23)CCS4)CO1` (stereo not drawn), the AC50 under setting [1] was 22.4 µM [falling, single point].
Same read-out and setting: in the case of `Cc1noc(C)c1S(=O)(=O)N1CCC(C(=O)N(C)Cc2ccccc2)CC1` it was 20.6 µM [rising, partial curve].
Same read-out and setting: in the case of `Cc1ccc(C(=O)Nc2ccc(Br)c(C(F)(F)F)c2)cc1` it was 22.4 µM [falling, single point].
As to `Cc1ccc(CN2CCN(CC(=O)N/N=C/c3ccccc3F)CC2)cc1`, the AC50 under setting [1] was 6.31 µM [rising, single point].
In the case of `C#CCSc1nnc(-c2ccc(OC)cc2)o1`, the AC50 under setting [1] is 29.1 µM [falling, single point].
In the case of `Cc1nn(-c2ccccc2)c(N)c1-c1ccccc1`, the AC50 under setting [1] was 11.2 µM [falling, partial curve].
The same measure, in the same setting: the figure for `COc1ccccc1C(=O)NCC(c1cccs1)N1CCc2ccccc21` (stereo not drawn) is 23.1 µM [falling, single point].
`COc1ccc(NC(=S)Nc2ccccn2)cc1`: the AC50 is, setting by setting: under setting [1], 17.8 µM [rising, partial curve, poor fit]; under setting [2], 20 µM [falling, single point].
In the case of `Cc1nn(-c2cc(C(F)(F)F)ccc2Cl)c2nc(C(Cl)(Cl)Cl)[nH]c(=O)c12`, the AC50 under setting [1] is 6.31 µM [falling, partial curve, poor fit].
The same measure, in the same setting: the figure for `FC(F)(F)c1cnc(N2CCN(C(=S)NCc3ccccc3)CC2)c(Cl)c1` is 35.5 µM [falling, single point]; for `CCC(=O)Nc1sc2c(c1C(N)=O)CCN(C(C)=O)C2` it is 0.206 µM [falling, full curve, poor fit].
Still for that read-out and setting: the figure for `COCCOC(=O)C1=C(C)Nc2nc(C)nn2C1c1ccc(F)cc1` (stereo not drawn) is 0.562 µM [falling, partial curve, poor fit].
Take `O=C(Nc1nc2c(F)cc(F)cc2s1)c1ccc([N+](=O)[O-])o1`: the half-maximal activity concentration (AC50) under setting [1] is 0.141 µM [falling, full curve, poor fit].
Take `CCOP(=O)(c1ccccc1)c1nc(-c2ccccc2Cl)oc1N1CCCCC1` (stereo not drawn): the AC50 under setting [2] was 29.1 µM [rising, single point].
Turning to `O=C(Nc1ccc(N2CCOCC2)cc1)c1ccc2ncsc2c1`, the AC50 under setting [1] is 4.61 µM [falling, partial curve, poor fit].
Same read-out and setting: the figure for `CCOc1cccc(NC(=O)C2CC(=O)N(C)C(=Nc3cccc(F)c3)S2)c1` (stereo not drawn) is 14.1 µM [falling, single point].
On to `COC1CCN(Cc2cn(Cc3ccccc3)nc2-c2cc3ccccc3o2)CC1`, for which the AC50 under setting [1] is 11.2 µM [falling, single point].
Still for that read-out and setting: in the case of `CCC(C)N1C(=O)S/C(=C/c2ccc3c(c2)n(C)c(=O)n3C)C1=O` (stereo not drawn) it was 12.6 µM [rising, partial curve, poor fit].
As for `COc1ccc(/C=N/NC(=O)CCOc2ccccc2C)cc1OC`, the AC50 under setting [1] was 29.1 µM [falling, single point].
Same read-out and setting: in the case of `CCSc1nc2c(c(=O)[nH]c(=O)n2C)n1C/C=C(/C)Cl` it was 0.82 µM [falling, partial curve, poor fit]; in that of `C/C(=N\NC(=O)c1ccc(N)cc1)C1CC1`, 10 µM [falling, partial curve, poor fit]; in that of `Cc1ccc2cccc(NC(=S)NC(=O)c3ccccc3)c2n1`, 0.126 µM [falling, full curve].
Take `CCOC(=O)c1sc2nc(-c3ccccc3)ccc2c1N`: the AC50 under setting [1] is 0.231 µM [rising, full curve, poor fit].
With `O=C(O)CCc1ccc(-c2ccccc2)o1`, the AC50 under setting [1] is 29.1 µM [falling, single point].
`C=CCN1C(=O)C2(NC(=O)c3ccccc3N2)c2ccccc21` (stereo not drawn): the AC50 under setting [1] is 11.2 µM [falling, partial curve, poor fit].
Turning to `COc1ccc(NC(=O)CSc2nnc(-c3ccccn3)n2N)c(OC)c1`, under setting [1], the concentration at half-maximal activity (AC50) was 6.31 µM [falling, partial curve, poor fit].
The same measure, in the same setting: in the case of `CC1CCc2[nH]c3ccc(C(=O)NCC4CCCO4)cc3c2C1` (stereo not drawn) it was 9.2 µM [rising, partial curve]; in that of `CNc1nc(SCC(=O)Nc2ccc(Cl)c(Cl)c2)nc(N2CCOCC2)n1`, 1.58 µM [rising, full curve]; in that of `COc1cc(C(=O)Nc2ccc(C(F)(F)F)cc2)ccc1OCC(=O)N1CCOCC1`, 4.61 µM [falling, partial curve].
